Reference: the supplement of paper PMC10849652
This is one part of the list.

Amino acid sequences for entries named in this document (tags omitted). A change or cut given only in a name is not applied to a line headed by its entry.
UniProt Q9H2J4: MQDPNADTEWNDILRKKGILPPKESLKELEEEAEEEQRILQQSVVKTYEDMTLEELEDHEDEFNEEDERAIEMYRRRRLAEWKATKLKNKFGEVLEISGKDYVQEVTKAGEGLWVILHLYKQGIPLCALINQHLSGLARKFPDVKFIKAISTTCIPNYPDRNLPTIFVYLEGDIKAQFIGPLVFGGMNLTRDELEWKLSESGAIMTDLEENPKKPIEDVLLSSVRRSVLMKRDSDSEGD
UniProt Q9HBH1: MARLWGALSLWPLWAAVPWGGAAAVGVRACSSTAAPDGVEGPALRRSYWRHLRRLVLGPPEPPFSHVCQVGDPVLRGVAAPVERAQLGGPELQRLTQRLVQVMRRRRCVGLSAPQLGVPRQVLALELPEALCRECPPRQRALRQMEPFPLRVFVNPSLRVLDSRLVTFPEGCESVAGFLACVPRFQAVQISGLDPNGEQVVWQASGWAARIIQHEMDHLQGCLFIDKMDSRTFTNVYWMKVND
UniProt Q6ZW49, whole entry, looked up: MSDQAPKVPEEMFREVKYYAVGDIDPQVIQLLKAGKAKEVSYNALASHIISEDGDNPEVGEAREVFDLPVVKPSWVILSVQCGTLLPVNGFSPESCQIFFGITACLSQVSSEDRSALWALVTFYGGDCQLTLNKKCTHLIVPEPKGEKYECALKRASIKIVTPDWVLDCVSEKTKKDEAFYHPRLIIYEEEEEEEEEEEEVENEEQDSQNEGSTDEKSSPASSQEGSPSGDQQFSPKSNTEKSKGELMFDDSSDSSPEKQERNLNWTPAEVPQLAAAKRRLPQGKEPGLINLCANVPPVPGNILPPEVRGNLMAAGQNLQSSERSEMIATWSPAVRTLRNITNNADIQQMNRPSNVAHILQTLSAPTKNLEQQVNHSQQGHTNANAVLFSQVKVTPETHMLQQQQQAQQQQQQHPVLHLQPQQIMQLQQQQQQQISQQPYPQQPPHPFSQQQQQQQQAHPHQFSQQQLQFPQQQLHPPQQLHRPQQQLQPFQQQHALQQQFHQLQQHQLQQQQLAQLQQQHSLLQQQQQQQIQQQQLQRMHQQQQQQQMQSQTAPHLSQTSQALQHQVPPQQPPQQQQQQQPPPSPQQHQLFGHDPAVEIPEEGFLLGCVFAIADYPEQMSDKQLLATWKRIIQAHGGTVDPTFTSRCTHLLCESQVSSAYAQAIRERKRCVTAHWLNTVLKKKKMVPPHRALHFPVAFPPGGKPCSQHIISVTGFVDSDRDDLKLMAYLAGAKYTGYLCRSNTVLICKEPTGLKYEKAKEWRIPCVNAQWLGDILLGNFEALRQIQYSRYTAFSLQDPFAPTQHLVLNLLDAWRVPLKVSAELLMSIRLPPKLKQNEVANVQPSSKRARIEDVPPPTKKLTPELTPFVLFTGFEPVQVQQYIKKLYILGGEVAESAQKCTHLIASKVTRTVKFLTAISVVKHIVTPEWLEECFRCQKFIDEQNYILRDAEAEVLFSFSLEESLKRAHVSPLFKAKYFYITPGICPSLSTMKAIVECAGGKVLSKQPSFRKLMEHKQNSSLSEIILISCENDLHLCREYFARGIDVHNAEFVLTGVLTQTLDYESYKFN
UniProt Q460N5, whole entry, looked up: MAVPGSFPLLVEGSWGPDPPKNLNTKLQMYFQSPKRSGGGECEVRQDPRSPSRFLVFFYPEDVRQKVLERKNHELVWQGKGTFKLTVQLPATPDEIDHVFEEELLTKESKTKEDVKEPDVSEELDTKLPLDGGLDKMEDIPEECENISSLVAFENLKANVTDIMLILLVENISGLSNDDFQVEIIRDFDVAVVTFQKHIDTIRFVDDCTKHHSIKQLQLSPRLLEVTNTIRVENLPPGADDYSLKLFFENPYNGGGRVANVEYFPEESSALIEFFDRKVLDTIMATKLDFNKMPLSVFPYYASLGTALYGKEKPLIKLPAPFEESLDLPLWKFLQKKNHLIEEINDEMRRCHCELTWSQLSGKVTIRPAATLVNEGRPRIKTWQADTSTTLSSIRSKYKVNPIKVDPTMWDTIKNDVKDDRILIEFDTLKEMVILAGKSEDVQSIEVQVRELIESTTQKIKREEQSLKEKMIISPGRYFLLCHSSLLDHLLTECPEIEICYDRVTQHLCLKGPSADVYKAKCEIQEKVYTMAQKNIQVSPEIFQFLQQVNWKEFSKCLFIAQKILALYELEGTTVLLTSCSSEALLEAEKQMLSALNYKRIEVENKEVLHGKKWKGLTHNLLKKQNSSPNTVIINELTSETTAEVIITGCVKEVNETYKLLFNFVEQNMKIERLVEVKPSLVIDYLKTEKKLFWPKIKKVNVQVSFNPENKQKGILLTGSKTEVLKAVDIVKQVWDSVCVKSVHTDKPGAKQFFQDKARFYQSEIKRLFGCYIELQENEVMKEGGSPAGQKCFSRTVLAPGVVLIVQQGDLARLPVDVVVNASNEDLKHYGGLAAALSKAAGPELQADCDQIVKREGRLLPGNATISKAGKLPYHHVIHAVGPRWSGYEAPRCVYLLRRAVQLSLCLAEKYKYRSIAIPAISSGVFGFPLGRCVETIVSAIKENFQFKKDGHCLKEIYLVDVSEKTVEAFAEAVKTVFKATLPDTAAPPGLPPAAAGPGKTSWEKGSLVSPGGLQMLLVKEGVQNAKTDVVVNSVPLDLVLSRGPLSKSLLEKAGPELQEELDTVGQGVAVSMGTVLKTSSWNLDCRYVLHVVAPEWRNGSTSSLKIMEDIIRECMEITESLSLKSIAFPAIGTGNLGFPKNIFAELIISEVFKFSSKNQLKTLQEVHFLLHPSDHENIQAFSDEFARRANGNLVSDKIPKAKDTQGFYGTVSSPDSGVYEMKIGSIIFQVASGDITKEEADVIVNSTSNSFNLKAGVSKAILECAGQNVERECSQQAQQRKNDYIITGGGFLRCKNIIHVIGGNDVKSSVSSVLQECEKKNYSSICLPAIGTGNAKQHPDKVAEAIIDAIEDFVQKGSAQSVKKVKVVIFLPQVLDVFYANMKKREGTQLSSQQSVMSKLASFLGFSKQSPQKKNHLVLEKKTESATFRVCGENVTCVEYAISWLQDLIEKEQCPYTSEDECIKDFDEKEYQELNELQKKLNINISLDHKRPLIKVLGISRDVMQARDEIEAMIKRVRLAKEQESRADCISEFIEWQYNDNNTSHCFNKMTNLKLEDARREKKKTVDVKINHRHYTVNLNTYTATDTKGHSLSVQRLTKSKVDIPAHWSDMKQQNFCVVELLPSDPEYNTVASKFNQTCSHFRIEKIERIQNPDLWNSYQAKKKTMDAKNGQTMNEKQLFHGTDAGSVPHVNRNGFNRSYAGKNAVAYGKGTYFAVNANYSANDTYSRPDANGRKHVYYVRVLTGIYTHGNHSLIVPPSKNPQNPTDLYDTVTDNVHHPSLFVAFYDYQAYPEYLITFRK
UniProt Q6L8Q7: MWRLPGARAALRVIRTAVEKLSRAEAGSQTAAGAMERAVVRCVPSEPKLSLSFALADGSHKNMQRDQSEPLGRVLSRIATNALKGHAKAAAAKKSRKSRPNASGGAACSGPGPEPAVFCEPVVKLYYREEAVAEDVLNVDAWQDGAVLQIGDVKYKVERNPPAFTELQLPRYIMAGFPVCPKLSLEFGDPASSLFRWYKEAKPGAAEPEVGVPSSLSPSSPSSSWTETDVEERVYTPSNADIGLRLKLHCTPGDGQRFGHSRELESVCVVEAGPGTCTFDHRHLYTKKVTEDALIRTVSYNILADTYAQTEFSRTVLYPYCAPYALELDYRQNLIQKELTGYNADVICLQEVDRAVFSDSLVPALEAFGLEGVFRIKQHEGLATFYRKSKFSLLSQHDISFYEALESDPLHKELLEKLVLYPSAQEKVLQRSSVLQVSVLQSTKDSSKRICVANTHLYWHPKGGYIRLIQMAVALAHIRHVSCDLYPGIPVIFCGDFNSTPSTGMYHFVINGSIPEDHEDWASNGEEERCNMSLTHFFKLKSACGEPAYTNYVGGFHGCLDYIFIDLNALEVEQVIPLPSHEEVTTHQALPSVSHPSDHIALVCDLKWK
UniProt Q8N5Y8: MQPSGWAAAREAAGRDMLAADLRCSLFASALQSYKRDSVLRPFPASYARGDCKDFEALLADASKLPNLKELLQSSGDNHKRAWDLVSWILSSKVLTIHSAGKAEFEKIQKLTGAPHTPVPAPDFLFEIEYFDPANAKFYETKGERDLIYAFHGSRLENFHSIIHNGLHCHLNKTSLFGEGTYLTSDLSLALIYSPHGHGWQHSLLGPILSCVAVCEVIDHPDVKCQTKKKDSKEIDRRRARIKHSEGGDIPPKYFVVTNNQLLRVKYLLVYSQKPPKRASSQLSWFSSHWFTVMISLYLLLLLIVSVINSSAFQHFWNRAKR
UniProt O15067: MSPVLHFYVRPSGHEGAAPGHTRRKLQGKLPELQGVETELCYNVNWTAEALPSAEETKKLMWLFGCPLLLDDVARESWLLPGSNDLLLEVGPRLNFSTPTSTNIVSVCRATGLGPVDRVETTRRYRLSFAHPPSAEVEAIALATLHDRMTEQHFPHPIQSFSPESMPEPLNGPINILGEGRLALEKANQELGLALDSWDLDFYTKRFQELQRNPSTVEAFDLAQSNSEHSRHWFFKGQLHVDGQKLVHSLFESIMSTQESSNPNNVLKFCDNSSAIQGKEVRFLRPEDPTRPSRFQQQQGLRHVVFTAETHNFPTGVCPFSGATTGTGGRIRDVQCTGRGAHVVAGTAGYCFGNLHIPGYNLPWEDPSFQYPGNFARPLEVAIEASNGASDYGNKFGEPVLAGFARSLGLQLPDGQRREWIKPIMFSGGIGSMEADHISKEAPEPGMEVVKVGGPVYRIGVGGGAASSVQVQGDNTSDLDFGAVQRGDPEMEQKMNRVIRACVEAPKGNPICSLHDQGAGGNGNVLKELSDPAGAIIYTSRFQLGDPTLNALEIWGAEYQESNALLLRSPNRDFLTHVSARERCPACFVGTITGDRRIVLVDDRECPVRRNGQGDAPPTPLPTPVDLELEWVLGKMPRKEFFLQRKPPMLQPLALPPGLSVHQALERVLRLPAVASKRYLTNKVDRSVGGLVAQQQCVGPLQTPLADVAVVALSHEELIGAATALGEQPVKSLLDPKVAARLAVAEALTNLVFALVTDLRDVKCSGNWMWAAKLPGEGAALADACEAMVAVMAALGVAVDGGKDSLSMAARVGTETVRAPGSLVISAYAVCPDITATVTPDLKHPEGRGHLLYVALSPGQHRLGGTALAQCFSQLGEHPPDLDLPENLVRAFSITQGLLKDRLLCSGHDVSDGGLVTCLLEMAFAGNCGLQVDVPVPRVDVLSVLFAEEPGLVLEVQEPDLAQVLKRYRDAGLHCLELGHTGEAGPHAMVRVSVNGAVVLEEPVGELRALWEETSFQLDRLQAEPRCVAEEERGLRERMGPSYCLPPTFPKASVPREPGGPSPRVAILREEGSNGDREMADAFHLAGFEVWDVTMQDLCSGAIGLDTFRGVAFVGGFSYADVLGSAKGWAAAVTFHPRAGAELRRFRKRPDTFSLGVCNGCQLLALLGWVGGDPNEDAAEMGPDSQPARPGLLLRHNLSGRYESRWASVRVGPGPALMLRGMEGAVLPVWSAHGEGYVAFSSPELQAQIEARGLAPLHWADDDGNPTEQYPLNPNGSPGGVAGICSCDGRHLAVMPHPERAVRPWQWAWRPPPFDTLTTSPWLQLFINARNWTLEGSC
UniProt Q8NCN5: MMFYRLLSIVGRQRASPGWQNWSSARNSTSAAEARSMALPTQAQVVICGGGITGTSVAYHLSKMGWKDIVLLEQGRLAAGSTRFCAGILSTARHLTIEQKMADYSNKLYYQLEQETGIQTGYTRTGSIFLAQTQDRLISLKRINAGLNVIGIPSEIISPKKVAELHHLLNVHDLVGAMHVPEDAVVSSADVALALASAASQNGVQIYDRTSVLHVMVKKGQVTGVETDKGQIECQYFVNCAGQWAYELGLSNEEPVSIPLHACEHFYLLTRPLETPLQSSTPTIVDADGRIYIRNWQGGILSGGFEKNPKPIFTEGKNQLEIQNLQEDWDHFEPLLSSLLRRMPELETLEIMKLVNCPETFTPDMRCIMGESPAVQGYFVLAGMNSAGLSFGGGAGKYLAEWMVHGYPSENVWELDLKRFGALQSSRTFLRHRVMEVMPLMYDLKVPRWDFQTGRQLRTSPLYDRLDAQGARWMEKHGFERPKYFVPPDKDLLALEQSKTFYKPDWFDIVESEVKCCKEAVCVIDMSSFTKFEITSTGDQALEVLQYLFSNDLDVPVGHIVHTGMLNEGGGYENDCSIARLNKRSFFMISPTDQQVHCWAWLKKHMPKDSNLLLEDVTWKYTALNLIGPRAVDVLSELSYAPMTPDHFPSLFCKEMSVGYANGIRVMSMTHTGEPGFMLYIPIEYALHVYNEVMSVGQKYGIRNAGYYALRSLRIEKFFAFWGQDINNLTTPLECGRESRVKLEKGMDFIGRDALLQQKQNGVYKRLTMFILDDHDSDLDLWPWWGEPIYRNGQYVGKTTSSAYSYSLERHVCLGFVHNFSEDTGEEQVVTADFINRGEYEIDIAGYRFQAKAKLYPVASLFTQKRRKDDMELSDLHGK

Each target was assayed with CC[C@@H]1C(=O)N(C)c2cnc(Nc3ccc(C(=O)N[C@H]4CC[C@H](N5CCN(CC6CC6)CC5)CC4)cc3OC)nc2N1C(C)C [volasertib] (assay: log2 fold change, soluble protein after heating vs DMSO (PISA); higher = thermal stabilisation; K562 lysate, 10 uM; active = over 0.2 and 3.5 SD of the protein, either way, in both replicates (recomputed)).
Summary of the method: (§1)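 K562 pellets were dounce-homogenised in PBS pH 7.4 with 1 mM MgCl2, and the crude extract at 1 mg/mL protein was treated with 10 μM compound for 30 min. Aliquots were heated for 3 min across 48°C-58°C, pooled, and brought to 0.5% NP-40 at 4°C; soluble protein was the supernatant after 21,000xg for 90 min. Soluble protein was quantified by TMTpro 16plex LC-MS/MS with channel sums equalised, and reported as log2 fold change in thermal stability against DMSO controls, with values from duplicates.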

Target	log2 fold change
PDXDC1 (UniProt Q6P996)	inactive: -0.059
PDCL3 (UniProt Q9H2J4)	inactive: 0.023
PDF (UniProt Q9HBH1)	inactive: -0.004
PAXIP1 (UniProt Q6ZW49)	inactive: -0.04
PARP14 (UniProt Q460N5)	inactive: 0.001
PDXP (UniProt Q96GD0)	inactive: 0.029
PDE12 (UniProt Q6L8Q7)	inactive: -0.027
PARP16 isoform 3 (UniProt Q8N5Y8)	inactive: 0.012
PFAS (UniProt O15067)	inactive: -0.091
PDPR (UniProt Q8NCN5)	inactive: -0.023

Each target was assayed with CCn1c(C(=O)N(C2CC2)C2CC2)cc2c3c(ncn3C)c(Nc3cc(C)n(C)n3)nc21 in the same assay as above.
Summary of the method: as §1

Target	log2 fold change
PDCD2 (UniProt Q16342)	inactive: 0.016
PGAM1 (UniProt P18669)	inactive: -0.01
PDCD6IP isoform 2 (UniProt Q8WUM4)	inactive: 0.032
PC (UniProt P11498)	inactive: 0.015
PCBP2 isoform 3 (UniProt Q15366)	inactive: 0.057
PCIF1 (UniProt Q9H4Z3)	inactive: 0.029
PFDN6 (UniProt O15212)	inactive: 0.04
PCYT1A (UniProt P49585)	inactive: -0.001
PCBP3 (UniProt P57721)	inactive: -0.011
PDS5B (UniProt Q9NTI5)	inactive: 0.034
PEBP1 (UniProt P30086)	inactive: 0.005
PAXX (UniProt Q9BUH6)	inactive: 0.012
PFDN5 (UniProt Q99471)	inactive: 0.062
PGAM5 (UniProt Q96HS1)	inactive: -0.009
PEX11B (UniProt O96011)	inactive: -0.015
PFKL isoform 2 (UniProt P17858)	inactive: -0.028
PEPD (UniProt P12955)	inactive: -0.048

Target	log2 fold change
PEX13 (UniProt Q92968)	inactive: 0.036
PCBD1 (UniProt P61457)	inactive: -0.05
PARN (UniProt O95453)	inactive: -0.001
PARP2 (UniProt Q9UGN5)	inactive: 0.04
PELP1 (UniProt Q8IZL8)	inactive: 0.036
PDCD10 (UniProt Q9BUL8)	inactive: 0
PDXDC1 (UniProt Q6P996)	inactive: -0.004
PDCL3 (UniProt Q9H2J4)	inactive: -0.017
PDF (UniProt Q9HBH1)	inactive: 0.01
PAXIP1 (UniProt Q6ZW49)	inactive: 0
PARP14 (UniProt Q460N5)	inactive: 0.003
PDXP (UniProt Q96GD0)	inactive: -0.028
PDE12 (UniProt Q6L8Q7)	inactive: -0.022
PARP16 isoform 3 (UniProt Q8N5Y8)	inactive: -0.113
PFAS (UniProt O15067)	inactive: 0
PDPR (UniProt Q8NCN5)	inactive: -0.014

These targets were tested with CCn1cc(-c2ccnc3[nH]c(-c4cccc(CN(C)C)c4)cc23)c(-c2ccc(NC(=O)N(C)C)cc2)n1 in the same assay as above.
Summary of the method: as §1

Target	log2 fold change
PDCD2 (UniProt Q16342)	inactive: -0.073
PGAM1 (UniProt P18669)	inactive: 0.323
PDCD6IP isoform 2 (UniProt Q8WUM4)	inactive: 0.071
PC (UniProt P11498)	inactive: 0.019
PCBP2 isoform 3 (UniProt Q15366)	inactive: -0.022
PCIF1 (UniProt Q9H4Z3)	inactive: -0.223
PFDN6 (UniProt O15212)	inactive: 0.055
PCYT1A (UniProt P49585)	inactive: 0.05
PCBP3 (UniProt P57721)	inactive: -0.062
PDS5B (UniProt Q9NTI5)	inactive: -0.057
PEBP1 (UniProt P30086)	inactive: -0.073
PAXX (UniProt Q9BUH6)	inactive: -0.005
PFDN5 (UniProt Q99471)	inactive: 0.041
PGAM5 (UniProt Q96HS1)	inactive: -0.101
PEX11B (UniProt O96011)	inactive: 0.169
PFKL isoform 2 (UniProt P17858)	inactive: 0.048
PEPD (UniProt P12955)	inactive: 0.028

Target	log2 fold change
PEX13 (UniProt Q92968)	inactive: -0.019
PCBD1 (UniProt P61457)	inactive: -0.085
PARN (UniProt O95453)	inactive: 0.085
PARP2 (UniProt Q9UGN5)	inactive: 0.097
PELP1 (UniProt Q8IZL8)	inactive: 0.237
PDCD10 (UniProt Q9BUL8)	active: -0.269
PDXDC1 (UniProt Q6P996)	inactive: -0.031
PDCL3 (UniProt Q9H2J4)	inactive: -0.059
PDF (UniProt Q9HBH1)	inactive: -0.014
PAXIP1 (UniProt Q6ZW49)	inactive: 0.043
PARP14 (UniProt Q460N5)	inactive: -0.08
PDXP (UniProt Q96GD0)	inactive: -0.074
PDE12 (UniProt Q6L8Q7)	inactive: 0.028
PARP16 isoform 3 (UniProt Q8N5Y8)	inactive: -0.091
PFAS (UniProt O15067)	inactive: -0.023
PDPR (UniProt Q8NCN5)	inactive: -0.068
